Measured values published in PubChem BioAssay (EPA / NIEHS).
The shares of active, inactive and inconclusive entries below differ from those in the screen. For some assays here: A potency beside an inconclusive call is a rough fit, not a confirmed value. The source made the active and inactive calls. How the source made its calls: active means hit-call score of the fitted dose curve at least 0.9, where 1 is the maximum; inconclusive means response in the unintended direction; inactive means score below 0.9.

Sequences of proteins named here, by UniProt entry; tags and fusion partners are left off. A change or cut given only in a name is not applied to a line headed by its entry.
UniProt P33261, whole entry, looked up: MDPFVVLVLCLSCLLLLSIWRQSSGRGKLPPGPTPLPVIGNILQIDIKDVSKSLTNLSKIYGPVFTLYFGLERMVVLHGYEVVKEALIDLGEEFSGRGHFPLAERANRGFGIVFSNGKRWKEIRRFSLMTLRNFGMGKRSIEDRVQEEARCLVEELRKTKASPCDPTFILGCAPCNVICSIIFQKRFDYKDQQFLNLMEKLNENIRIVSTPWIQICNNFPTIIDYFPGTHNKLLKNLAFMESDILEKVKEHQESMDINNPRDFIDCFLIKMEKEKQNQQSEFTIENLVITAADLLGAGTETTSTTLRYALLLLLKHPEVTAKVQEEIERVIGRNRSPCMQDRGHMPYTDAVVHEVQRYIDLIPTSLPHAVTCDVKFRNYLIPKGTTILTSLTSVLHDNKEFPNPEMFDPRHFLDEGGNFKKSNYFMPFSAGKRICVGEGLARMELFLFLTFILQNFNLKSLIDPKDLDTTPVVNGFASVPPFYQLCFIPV
UniProt P11712, whole entry, looked up: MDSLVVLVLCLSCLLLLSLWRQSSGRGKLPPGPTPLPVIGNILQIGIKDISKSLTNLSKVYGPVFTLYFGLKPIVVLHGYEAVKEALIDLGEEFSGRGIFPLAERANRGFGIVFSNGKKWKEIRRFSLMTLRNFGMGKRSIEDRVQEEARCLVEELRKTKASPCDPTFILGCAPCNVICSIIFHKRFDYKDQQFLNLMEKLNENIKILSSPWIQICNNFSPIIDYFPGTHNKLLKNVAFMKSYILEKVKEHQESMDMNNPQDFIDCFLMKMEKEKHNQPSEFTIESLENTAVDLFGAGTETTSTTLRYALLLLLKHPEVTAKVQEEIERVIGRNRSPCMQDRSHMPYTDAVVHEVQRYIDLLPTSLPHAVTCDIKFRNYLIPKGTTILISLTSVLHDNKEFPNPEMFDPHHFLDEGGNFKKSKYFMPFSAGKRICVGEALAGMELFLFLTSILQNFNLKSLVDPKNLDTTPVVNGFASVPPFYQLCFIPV
UniProt P04406: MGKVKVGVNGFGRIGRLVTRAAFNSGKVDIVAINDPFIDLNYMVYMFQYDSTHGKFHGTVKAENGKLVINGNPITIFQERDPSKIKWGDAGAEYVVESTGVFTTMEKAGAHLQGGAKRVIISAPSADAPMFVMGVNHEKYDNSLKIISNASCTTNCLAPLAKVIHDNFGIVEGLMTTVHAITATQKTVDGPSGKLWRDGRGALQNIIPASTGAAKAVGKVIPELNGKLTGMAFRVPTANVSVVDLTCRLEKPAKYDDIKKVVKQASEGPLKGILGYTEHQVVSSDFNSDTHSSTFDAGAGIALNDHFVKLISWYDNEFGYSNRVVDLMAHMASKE
UniProt P20813: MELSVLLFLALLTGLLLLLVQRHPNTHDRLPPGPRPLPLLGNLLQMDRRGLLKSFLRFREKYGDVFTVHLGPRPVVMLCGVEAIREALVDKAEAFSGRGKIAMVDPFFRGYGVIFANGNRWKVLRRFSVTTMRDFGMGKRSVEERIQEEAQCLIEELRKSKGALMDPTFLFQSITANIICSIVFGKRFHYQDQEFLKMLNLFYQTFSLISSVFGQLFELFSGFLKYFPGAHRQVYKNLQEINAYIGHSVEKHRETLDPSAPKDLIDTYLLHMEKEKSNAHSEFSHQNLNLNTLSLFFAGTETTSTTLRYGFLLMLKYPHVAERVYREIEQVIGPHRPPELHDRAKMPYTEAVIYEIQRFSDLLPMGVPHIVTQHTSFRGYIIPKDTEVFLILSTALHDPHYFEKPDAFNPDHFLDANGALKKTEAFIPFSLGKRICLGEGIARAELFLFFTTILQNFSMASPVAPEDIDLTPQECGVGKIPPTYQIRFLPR
UniProt Q9UNQ0: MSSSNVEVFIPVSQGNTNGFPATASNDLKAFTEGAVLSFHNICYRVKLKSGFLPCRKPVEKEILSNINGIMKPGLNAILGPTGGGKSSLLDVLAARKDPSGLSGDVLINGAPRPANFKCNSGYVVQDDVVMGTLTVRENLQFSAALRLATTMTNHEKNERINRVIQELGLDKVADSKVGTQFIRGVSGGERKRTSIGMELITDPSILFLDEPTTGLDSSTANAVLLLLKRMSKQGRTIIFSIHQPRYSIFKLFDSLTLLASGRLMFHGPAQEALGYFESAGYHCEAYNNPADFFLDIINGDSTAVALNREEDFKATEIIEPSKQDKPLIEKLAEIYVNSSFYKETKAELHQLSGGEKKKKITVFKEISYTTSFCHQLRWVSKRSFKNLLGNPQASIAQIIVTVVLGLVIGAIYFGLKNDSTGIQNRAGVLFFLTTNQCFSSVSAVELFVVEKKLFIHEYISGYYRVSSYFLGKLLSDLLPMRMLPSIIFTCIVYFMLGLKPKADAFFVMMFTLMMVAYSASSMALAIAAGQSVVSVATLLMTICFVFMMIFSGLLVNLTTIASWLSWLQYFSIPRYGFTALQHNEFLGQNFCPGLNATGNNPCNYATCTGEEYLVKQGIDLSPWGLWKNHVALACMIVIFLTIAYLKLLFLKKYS

What was measured:
[1] = read-out: Cytochrome P450 2C19 (Homo sapiens) (UniProt P33261); experiment: CLD_CYP2C19_24hr: CellzDirect (CLD) Gene Expression Assay for xenobiotic metabolism (CYP2C19) at 24 hours (AID 2283687)
Method in brief: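 Primary human hepatocytes (two donor preparations) dosed daily with fresh test chemical in 0.2% DMSO vehicle; CYP2C19 mRNA induction measured at 24 h by quantitative nuclease protection assay with chemiluminescence, fitted for gain of signal versus DMSO.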

[2] = read-out: Cytochrome P450 2C9 (Homo sapiens) (UniProt P11712); experiment: CLD_CYP2C9_24hr: CellzDirect (CLD) Gene Expression Assay for xenobiotic metabolism (CYP2C9) at 24 hours (AID 2283688);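 on AC50: potency for induction meaning a rise in CYP2C9 mRNA over DMSO vehicle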
Method in brief: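 Primary human hepatocytes from two donor preparations, dosed daily for two days at multiple concentrations; vehicle 0.2% DMSO. CYP2C9 mRNA induction at 24 h measured by qNPA chemiluminescence relative to DMSO; cytotoxicity annotated from morphology.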

[3] = read-out: organic anion transporter (SLCO1B1), SLCO1B1 (gene 10599); experiment: CLD_SLCO1B1_24hr: CellzDirect (CLD) Gene Expression Assay for organic anion transporter (SLCO1B1) at 24 hours (AID 2283690)
Method in brief: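 Primary human hepatocytes (two donor preparations) dosed daily for two days with chemicals at multiple concentrations, 0.2% DMSO vehicle. SLCO1B1 mRNA at 24 h measured by qNPA chemiluminescence; induction fitted relative to DMSO.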

[4] = read-out: Glyceraldehyde-3-phosphate dehydrogenase (Homo sapiens) (UniProt P04406); experiment: CLD_GAPDH_24hr: CellzDirect (CLD) Gene Expression Assay for Baseline Control (Glyceraldehyde 3-phosphate dehydrogenase) at 24 hours (AID 2283692)
Method in brief: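 Primary human hepatocytes (two donor preparations) dosed daily for two days, 0.2% DMSO vehicle; GAPDH mRNA measured at 24 h by qNPA chemiluminescence as a background control, gain-of-signal fitted against DMSO.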

[5] = read-out: alkyl and aryl transferase (GSTA2), GSTA2 (gene 2939); experiment: CLD_GSTA2_24hr: CellzDirect (CLD) Gene Expression Assay for alkyl and aryl transferase (GSTA2) at 24 hours (AID 2283693)
Method in brief: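 Primary human hepatocytes (two donor preparations) dosed daily for two days with chemicals at multiple concentrations (vehicle 0.2% DMSO); GSTA2 mRNA at 24 h measured by qNPA chemiluminescence, gain-of-signal versus DMSO.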

[6] = read-out: ABC Transporter (ABCB1), ABCB1 (gene 5243); experiment: CLD_ABCB1_48hr: CellzDirect (CLD) Gene Expression Assay for ABC Transporter (ABCB1) at 48 hours (AID 2283695);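 on AC50: potency for induction meaning increase of mRNA over DMSO vehicle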
Method in brief: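 Primary human hepatocytes from two donor preparations dosed daily on two consecutive days with 0.2% DMSO vehicle. Harvest at 48 h. ABCB1 mRNA quantified by qNPA with chemiluminescence and fitted for gain of signal versus DMSO.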

[7] = read-out: ABC Transporter (ABCB11), ABCB11 (gene 8647); experiment: CLD_ABCB11_48hr: CellzDirect (CLD) Gene Expression Assay for ABC Transporter (ABCB11) at 48 hours (AID 2283697)
Method in brief: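 Primary human hepatocytes from two donor preparations dosed daily for two days at multiple concentrations; 0.2% DMSO vehicle. ABCB11 mRNA at 48 h by quantitative nuclease protection assay, chemiluminescence; fitted for induction versus DMSO.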

[8] = CLD_ACTIN_48hr: CellzDirect (CLD) Gene Expression Assay for Baseline Control (Actin) at 48 hours (AID 2283702)
Method in brief: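 Primary human hepatocytes (two donor preparations) dosed daily for two days with ToxCast chemicals at multiple concentrations versus 0.2% DMSO vehicle; harvested at 48 h. Actin mRNA measured as a background control by quantitative nuclease protection assay with chemiluminescence.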

[9] = read-out: xenobiotic metabolism (CYP1A1), CYP1A1 (gene 1543); experiment: CLD_CYP1A1_48hr: CellzDirect (CLD) Gene Expression Assay for xenobiotic metabolism (CYP1A1) at 48 hours (AID 2283705)
Method in brief: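 Primary human hepatocytes from two donors dosed daily for two days at multiple concentrations, 0.2% DMSO vehicle; CYP1A1 mRNA induction at 48 h by qNPA chemiluminescence. Cytotoxicity noted by phase-contrast morphology.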

[10] = read-out: Glyceraldehyde-3-phosphate dehydrogenase (Homo sapiens) (UniProt P04406); experiment: CLD_GAPDH_48hr: CellzDirect (CLD) Gene Expression Assay for Baseline Control (Glyceraldehyde 3-phosphate dehydrogenase) at 48 hours (AID 2283706)
Method in brief: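 Primary human hepatocytes dosed daily for two days with fresh chemical at multiple concentrations, 0.2% DMSO vehicle; GAPDH mRNA measured at 48 h by quantitative nuclease protection assay with chemiluminescence, fitted upward relative to DMSO as background control.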

[11] = read-out: organic anion transporter (SLCO1B1), SLCO1B1 (gene 10599); experiment: CLD_SLCO1B1_48hr: CellzDirect (CLD) Gene Expression Assay for organic anion transporter (SLCO1B1) at 48 hours (AID 2283707)
Method in brief: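 Primary human hepatocytes from two donor preparations dosed daily for two days with multiple concentrations, 0.2% DMSO vehicle. SLCO1B1 mRNA at 48 h by quantitative nuclease protection assay, chemiluminescence; gain-of-signal fitted versus DMSO.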

[12] = read-out: alkyl and aryl transferase (GSTA2), GSTA2 (gene 2939); experiment: CLD_GSTA2_48hr: CellzDirect (CLD) Gene Expression Assay for alkyl and aryl transferase (GSTA2) at 48 hours (AID 2283708);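 further: active means mRNA induction above DMSO vehicle baseline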
Method in brief: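 Primary human hepatocytes dosed daily for two days (0.2% DMSO vehicle), harvested at 48 h. GSTA2 mRNA induction measured by quantitative nuclease protection assay with chemiluminescent imaging, fitted for gain of signal relative to DMSO.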

[13] = read-out: HMG-CoA synthase (HMGCS2), HMGCS2 (gene 3158); experiment: CLD_HMGCS2_24hr: CellzDirect (CLD) Gene Expression Assay for HMG-CoA synthase (HMGCS2) at 24 hours (AID 2283691)
Method in brief: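 Primary human hepatocytes from two donor preparations, dosed daily with fresh solutions; vehicle 0.2% DMSO, 24 h harvest. HMGCS2 mRNA quantified by qNPA with S1 nuclease digestion and chemiluminescence; gain fitted versus DMSO, cytotoxicity annotated by morphology.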

[14] = read-out: Cytochrome P450 2C19 (Homo sapiens) (UniProt P33261); experiment: CLD_CYP2C19_48hr: CellzDirect (CLD) Gene Expression Assay for xenobiotic metabolism (CYP2C19) at 48 hours (AID 2283700)
Method in brief: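 Primary human hepatocytes (two donor preparations) dosed daily for two days, harvested at 48 h; CYP2C19 mRNA induction measured by qNPA chemiluminescence. Gain-of-signal fitted relative to 0.2% DMSO vehicle as baseline.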

[15] = read-out: sulfotransferase (SULT2A), SULT2A1 (gene 6822); experiment: CLD_SULT2A_24hr: CellzDirect (CLD) Gene Expression Assay for sulfotransferase (SULT2A) at 24 hours (AID 2283694);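 further: potency for increased SULT2A1 mRNA level as induction over DMSO baseline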
Method in brief: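 Primary human hepatocytes from two donor preparations were dosed daily with fresh solutions, vehicle 0.2% DMSO. At 24 h, lysates went to quantitative nuclease protection (qNPA) with S1 digestion and chemiluminescent readout. Cytotoxicity was annotated from phase-contrast morphology.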

[16] = read-out: Cytochrome P450 2B6 (Homo sapiens) (UniProt P20813); experiment: CLD_CYP2B6_48hr: CellzDirect (CLD) Gene Expression Assay for xenobiotic metabolism (CYP2B6) at 48 hours (AID 2283699);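 further: actives raise transcript level above DMSO so potency reflects induction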
Method in brief: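 Primary human hepatocytes dosed daily for two days over multiple concentrations, 0.2% DMSO vehicle; CYP2B6 mRNA quantified at 48 h by qNPA chemiluminescence. Induction fitted as gain of signal versus DMSO; cytotoxicity annotated by morphology.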

[17] = read-out: Broad substrate specificity ATP-binding cassette transporter ABCG2 (Homo sapiens) (UniProt Q9UNQ0); experiment: CLD_ABCG2_48hr: CellzDirect (CLD) Gene Expression Assay for ABC Transporter (ABCG2) at 48 hours (AID 2283704);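 further: potency for induction of ABCG2 mRNA above the DMSO baseline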
Method in brief: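 Primary human hepatocytes from two donors, dosed daily for 2 days, 0.2% DMSO vehicle, several concentrations. ABCG2 mRNA at 48 h by qNPA chemiluminescence, gain fitted versus DMSO; cytotoxicity flagged by morphology.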

[18] = read-out: Broad substrate specificity ATP-binding cassette transporter ABCG2 (Homo sapiens) (UniProt Q9UNQ0); experiment: CLD_ABCG2_24hr: CellzDirect (CLD) Gene Expression Assay for ABC Transporter (ABCG2) at 24 hours (AID 2283685)
Method in brief: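 Primary human hepatocytes were dosed daily with ToxCast chemicals at multiple concentrations (vehicle 0.2% DMSO). ABCG2 mRNA was measured at 24 h by qNPA chemiluminescence; induction was scored as gain of signal versus DMSO.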

Measured: AC50

O=S1OCC2C(CO1)C1(Cl)C(Cl)=C(Cl)C2(Cl)C1(Cl)Cl (stereo unspecified)
inconclusive: [3] 3.97 µM | [4] 34.1 µM | [7] 20 µM | [8] 3.97 µM | [9] 2 µM | [10] 20 µM | [11] 1.9 µM | [12] 20 µM
active: [6] 29.4 µM
inactive: [1] | [2] | [5]

COC(=O)c1c(C(F)F)nc(C(F)(F)F)c(C2=NCCS2)c1CC(C)C
inconclusive: [1] 0.00308 µM | [3] 0.0602 µM | [13] 20 µM | [4] 20 µM | [5] 20 µM | [7] 5.31 µM | [8] 1.9 µM | [10] 0.208 µM
active: [12] 20 µM
inactive: [2] | [14]

CSC1=N[C@@](C)(c2ccccc2)C(=O)N1Nc1ccccc1
inactive: [2] | [3] | [13] | [8]
inconclusive: [1] 20 µM | [7] 20 µM | [14] 33 µM
active: [9] 20 µM

N#Cc1c(Cl)c(Cl)c(Cl)c(C#N)c1Cl
inconclusive: [1] 2 µM | [2] 2 µM | [3] 0.0004 µM | [15] 0.0004 µM | [6] 2 µM | [11] 0.00937 µM
not listed: [5] | [16] | [17] | [18]
inactive: all other assays above

CNC(=O)Oc1ccccc1OC(C)C
inconclusive: [1] 20 µM | [2] 0.0004 µM | [3] 20 µM | [13] 20 µM | [5] 4.05 µM | [7] 20 µM | [17] 20 µM | [12] 0.00115 µM
active: [16] 1.51 µM
inactive: [4] | [8] | [9] | [10]

Cc1cc(Cl)ccc1OCC(=O)O
inactive: [18] | [13] | [6] | [16] | [14] | [8]
inconclusive: [4] 0.00761 µM | [5] 20 µM | [15] 1.89 µM | [9] 20 µM | [10] 0.0004 µM | [11] 20 µM | [12] 3.97 µM
